Measurements taken from patent publication US20100119489A1, “Stimulation of Pancreatic Beta Cell Proliferation” (priority 2005, published 2010).
“Also recorded” adds a separate entry of the source. At least one structure is not confirmed: it was looked up by name or label, or the drawing left a doubt.

System: TMEM27
Assay: Shedding of TMEM27 from MIN6 cells (immunoblot of supernatant, N-terminus; anti-V5 C-terminus as control)
Type: cell-based
Procedure: The pancreatic beta-cell line MIN6 was cultured with DMEM medium containing 25 mM glucose, 15% fetal bovine serum, and 5.5 μM 2-mercaptoethanol. MIN6 cells were plated at 50% confluency in 12 well plates and incubated for 24 hrs. Cells were washed with OPTI-MEM (Invitrogen) and incubated with either DMSO or protease inhibitor BB94 (1 μM) for 15 minutes in OPTI-MEM at 37° C. After the above incubation, cells were incubated with DMSO, PMA (Sigma P8139), BB94, or PMA+BB94 for 2 hrs in OPTI-MEM. 30 μl of each supernatant was collected for SDS-PAGE. Immunoblots were performed using anti-TMEM27 antibodies recognizing the N-terminus (cleaved portion) of TMEM27 (FIG. 8). […] Since BB94 is a known inhibitor of serine proteases and metalloproteases, this may indicate that TMEM27 is a substrate of a protease belonging to serine protease or metalloprotease family.

CNC(=O)[C@H](Cc1ccccc1)NC(=O)[C@H](CC(C)C)[C@H](CSc1cccs1)C(=O)NO [BB94]
expression levels of TMEM27 (C-terminus, anti-V5 antibody control) (2 hrs in OPTI-MEM): do not change the expression levels of TMEM27
expression levels of the N-terminus (cleaved portion) of TMEM27 in supernatant (BB94 1 μM, 15 min pre-incubation then 2 hrs in OPTI-MEM): decreases expression levels of the N-terminus of TMEM27; also recorded: lower levels of antibody-recognized cleaved N terminus
